Test results from paper PMC8882575.
These are yes or no findings as the source states them, for the method shown. Binding seen in cells or lysates may run through a third protein. Some binding calls cover weakened binding; strength is not graded here.

Legend:
[1] = molecular target: RNF168 (human (endogenous in HEK293)) (UniProt Q8IYW5); experiment: co-IP; RNF168 co-IP from nuclear fractions of HEK293 cells transfected with GFP-Q23 or GFP-Q74 and treated with 5 uM synthetic MIU1 peptide or DMSO (mock) for 24 h; eluates blotted for p62
[2] = molecular target: RNF168 (human (endogenous in HEK293)) (UniProt Q8IYW5); experiment: co-IP; anti-RNF168 antibody cross-linked (BS3) to protein G Dynabeads; 150-200 ug nuclear extracts (soluble and insoluble nuclear fractions combined) of HEK293 cells transfected with GFP-Q23 or GFP-Q74; 2 h at 4 °C; washes in 1% and 0.2% NP-40 lysis buffer; eluates blotted for p62

Q: Which binding [1] does the source give for p62/SQSTM1 (from UniProt Q13501 1-440) here?
A: binds

Q: What about the binding [2] of the same substance?
A: binds
